Consider 67 sequences from PubChem BioAssay AID1347423 (Functional Genomics Laboratory (NCATS/FGL), 2020).

Among all 52,000 sequences or so, about 210 (0.4%) were called active.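 The calls were made as follows: active = gene whose silencing raises cell survival under the drug, median off-target-corrected z-score across its silencing RNAs 2 or more; inactive = the rest.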 This is one part of the list.

This experiment in a line: Resistance to Poly (ADP-Ribose) Polymerase inhibitor: Gene Identification via Genome-wide siRNA Screen. The conditions noted are these: mouse BRCA2 R2336H ES cells, olaparib, CellTiter-Glo viability; active compounds read high. A digest of the protocol: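 Genome-wide siRNA screen (3 siRNAs/gene, 20 nM) in mouse ES cells carrying hypomorphic BRCA2 R2336H; olaparib 500 nM added 48 h post-transfection, CellTiter-Glo viability 72 h later. Normalized to plate-median negative control; MAD z-scores, gene median, seed-adjusted.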
With GGUGGAUCCCAACUGUUUCTT against Akap10, the z-score is inactive: 0.373. Under “GGUCUUUGACAGAAUAAAATT against C030002N13Rik” stands inactive: 0.706; under GGUGAUGAAGAGGUUCCCUTT against Fzd4, inactive: 0.344; under GGAGAGUAUACCUGUCUGGTT against Fgfr4, inactive: 0.0349. Under “GGAGAAAACGUGAUGAGGATT against A330064G03Rik” stands inactive: -1.42. Under GGAAGAUGUAUUCUUCUCCTT against Gemin4 stands inactive: -0.865; under GGGAUUCAAACAGGUCUUGTT against Ahsg, inactive: -0.981. For GGUUAUGAAACUGAGAAAGTT against Mid2, the z-score was inactive: 0.157.

Consider AAUGCUAUUAUACCAACUGTT against V1rh5, for which the z-score was inactive: 0.612. As for GGAUGACCAAAAGGACAAUTT against Galp, the z-score is inactive: -1.46. Under GGUGCUGAGGCUGAUUCUCTT against Solh stands inactive: 0.973; under GGGAUCAGACUGUAUAGACTT against Chchd4, inactive: 0.242; under GGACUUGCUAAGAGACCAATT against Cntn2, inactive: 0.885. Consider GGAAGAAGCCUUUUGAGUGTT against Peg3, for which the z-score was inactive: 0.57. On to CCAGAGAAAUAUCGACAAGTT against Rasgrf1, for which the z-score was inactive: 1.33. Under GGCACCUGAGGGAACUAAGTT against Atp1a2 stands inactive: -0.322; under GCGUAUACCAUGCAGAUAUTT against Oprs1, inactive: -1.42. For the sequence GGUGAUUUCUAUCGAUUUUTT against Dhrs9, the z-score is inactive: 1.02. CCUUGACAGGACUAUAUUUTT against Pter: the z-score is inactive: -0.773. Under GGCUGAACAGGCAUGAUCATT against Rpap1 stands inactive: -1.77; under “GAAAUUCUUCCAGUGGAAGTT against 2310006J04Rik”, inactive: 1.91.

With GGAGCAGAAUGGAGUGCAGTT against Slc6a3, the z-score was inactive: 0.611.

GGAGGUUUCCUUAGGCAAATT against Drd5: the z-score is inactive: 2.11. Under GGAGCACUUGUGGAUCAAUTT against Efhd1 stands inactive: 2.04; under GGGUUAGGAUACCUCGACUTT against Arnt2, inactive: -0.0242. Under GCCAAUAAUCCACAGGCAATT against Ryk stands inactive: -1.24. GGGCUCGUUAAUCUUUUACTT against Nola3: the z-score was inactive: 0.375. As for GGAGGUGUCGGGAUAUCAATT against Ptprm, the z-score is inactive: 0.421. Take GGCUCCUCAAAGGUCAAGUTT against Mybpc3: the z-score was inactive: 1.08. Under CCACAUGAUCCUAACUUUGTT against Pqbp1 stands inactive: 0.119.

As to “GCUCAAUCAAAAAGAUCCUTT against 2610039E05Rik”, the z-score is inactive: -0.522. Under GGGAUCAAAUUACACCUGUTT against Phox2a stands inactive: 1.06; under GCCGAUCUAAGAAAAACAATT against Tro, inactive: -0.259. On to “GCCCUGAUGCAAGCUUGUGTT against C030038J10Rik”, for which the z-score is inactive: -0.681.

Regarding GCUAUUGAGUUAUCGUUGCTT against Stam2, the z-score is inactive: 0.98.

Consider GGAGGUGCAUUAUAAGAAUTT against Fhl1, for which the z-score was inactive: 0.0909. Under CGAAGACGGUGACUACUAUTT against Bicd2 stands inactive: -1.41; under GGCUAUGAAUAAACUUUUCTT against Olfr1016, inactive: 1.23. In the case of GGUGUCCAUGCUAGCUGUATT against Vmd2l1, the z-score is inactive: -2.12. CUACUUCACUUGCAUAACUTT against Dnajc2: the z-score was inactive: -0.149. With GAAAGUGUUCAAUAUACUGTT against Klra10, the z-score was inactive: -0.127. Under GGGAAUUUCCUGAAAUCCUTT against BC004636 stands inactive: 0.94. “GCUCUCCUUGAUCGAGAGATT against 6330409N04Rik”: the z-score is inactive: -0.659.

On to “GGUAGAUGAUGAAAAACAATT against 1700013E18Rik”, for which the z-score was inactive: -0.106.

As to GCCCGGAAUCUGUCUAAACTT against Btg2, the z-score is inactive: -1.43.

Take “GGCAUGAAAGCACAAAUGGTT against 0610037L13Rik”: the z-score was inactive: -0.00427. Under GGUGGUCUAUUUCACCACGTT against Slc6a20 stands inactive: 0.293; under GCAUGAGGAUUGCACUAGGTT against Shbg, inactive: 1.85; under GGAUGUCAAGGACACAGUATT against Olfr73, inactive: -0.894.

“GGCCUACAUUUUAAUUCAGTT against 4632425D07Rik”: the z-score was inactive: 0.864.

On to “GGACUGAAGAACUUGAAAGTT against 5730521E12Rik”, for which the z-score is inactive: 0.245. Under GGAGCUGAGAACUAUUAGATT against Abr stands inactive: 0.544. Under GCCUGAUCGAUACGUGAUCTT against Gm964 stands inactive: 1.16; under GGAGAAGGAACAAGAUAAATT against Sfrs12, inactive: -2.27.

Consider “GGACCAGAUUGUGAUUGAUTT against B230118H07Rik”, for which the z-score is inactive: 1.5. Under GGAAUUGGAUGUGAGCAACTT against Slitl2 stands inactive: 1.3; under GGAUAUUGUCUUUGUAGAATT against Kap, inactive: 0.37; under GCAUGUGACCUCGUCUUGCTT against Apbb2, inactive: -0.741. Under GGAGAUUCAGUUCUUCAAUTT against Ndst2 stands inactive: -0.274; under CGUUCAACAACAGAGAAAATT against Scnn1g, inactive: -0.0181. Under “GGCUAUGCUGAUCUGAAGATT against 6330407D12Rik” stands inactive: -0.405; under “CCUUGGUUUGCACACUCAGTT against 9130211I03Rik”, inactive: -2.54. Consider CCACAGCCAAAUGCACAAGTT against Gm1631, for which the z-score was inactive: -0.237. Under GGCAUGUGAAAUGUAUACCTT against Napb stands inactive: 0.686; under GGCUCAUAAACGACAAAGGTT against Cxcl11, inactive: 0.26; under GGUCAAAUCUCAGAUGAAGTT against Kcnab1, inactive: 0.455. Under GGAGUUUGAAGACUUUUUGTT against Pstpip2 stands inactive: -0.32.
